Measured values published in the supplement of paper PMC10849652.
This is one part of the list.

Chains of the proteins cited; added tags and fusions are not shown. Lines headed by an entry give the natural chain unless they say otherwise; changes in a name come on top.
UniProt Q8N357: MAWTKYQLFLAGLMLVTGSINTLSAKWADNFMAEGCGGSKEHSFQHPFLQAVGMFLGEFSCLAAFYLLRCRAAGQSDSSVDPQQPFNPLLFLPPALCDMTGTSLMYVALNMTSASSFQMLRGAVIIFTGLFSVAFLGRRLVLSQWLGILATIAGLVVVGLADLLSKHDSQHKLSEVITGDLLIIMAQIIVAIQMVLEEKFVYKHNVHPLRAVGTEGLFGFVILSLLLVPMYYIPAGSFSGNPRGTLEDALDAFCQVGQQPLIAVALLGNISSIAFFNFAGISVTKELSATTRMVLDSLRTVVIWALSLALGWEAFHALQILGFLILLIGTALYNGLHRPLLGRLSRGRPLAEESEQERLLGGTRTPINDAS
UniProt Q9BRV3: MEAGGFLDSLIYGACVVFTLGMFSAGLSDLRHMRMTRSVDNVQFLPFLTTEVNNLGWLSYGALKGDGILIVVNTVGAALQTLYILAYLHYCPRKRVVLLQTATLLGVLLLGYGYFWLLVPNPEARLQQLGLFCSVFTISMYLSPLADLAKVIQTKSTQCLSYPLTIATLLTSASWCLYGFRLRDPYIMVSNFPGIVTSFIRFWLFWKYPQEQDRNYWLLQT
UniProt Q9NTN3, whole entry, looked up: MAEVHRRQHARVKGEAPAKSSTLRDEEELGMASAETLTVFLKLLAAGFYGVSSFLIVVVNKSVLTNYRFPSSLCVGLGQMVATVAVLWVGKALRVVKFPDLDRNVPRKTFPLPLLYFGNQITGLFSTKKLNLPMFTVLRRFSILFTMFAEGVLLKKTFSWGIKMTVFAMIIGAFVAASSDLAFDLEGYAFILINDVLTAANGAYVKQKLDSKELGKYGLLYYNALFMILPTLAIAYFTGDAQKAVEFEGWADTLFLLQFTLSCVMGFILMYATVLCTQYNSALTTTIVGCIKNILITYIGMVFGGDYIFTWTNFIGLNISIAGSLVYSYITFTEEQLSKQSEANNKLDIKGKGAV
UniProt Q3KQZ1: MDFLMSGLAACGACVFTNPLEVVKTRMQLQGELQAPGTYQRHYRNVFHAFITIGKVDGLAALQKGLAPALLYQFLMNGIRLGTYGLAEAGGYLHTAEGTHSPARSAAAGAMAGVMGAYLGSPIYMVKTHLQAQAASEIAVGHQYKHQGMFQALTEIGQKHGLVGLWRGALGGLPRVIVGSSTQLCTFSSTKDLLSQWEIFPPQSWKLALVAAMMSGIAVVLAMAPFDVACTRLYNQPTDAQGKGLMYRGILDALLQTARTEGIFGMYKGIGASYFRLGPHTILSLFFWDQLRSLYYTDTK
UniProt Q9C0K1: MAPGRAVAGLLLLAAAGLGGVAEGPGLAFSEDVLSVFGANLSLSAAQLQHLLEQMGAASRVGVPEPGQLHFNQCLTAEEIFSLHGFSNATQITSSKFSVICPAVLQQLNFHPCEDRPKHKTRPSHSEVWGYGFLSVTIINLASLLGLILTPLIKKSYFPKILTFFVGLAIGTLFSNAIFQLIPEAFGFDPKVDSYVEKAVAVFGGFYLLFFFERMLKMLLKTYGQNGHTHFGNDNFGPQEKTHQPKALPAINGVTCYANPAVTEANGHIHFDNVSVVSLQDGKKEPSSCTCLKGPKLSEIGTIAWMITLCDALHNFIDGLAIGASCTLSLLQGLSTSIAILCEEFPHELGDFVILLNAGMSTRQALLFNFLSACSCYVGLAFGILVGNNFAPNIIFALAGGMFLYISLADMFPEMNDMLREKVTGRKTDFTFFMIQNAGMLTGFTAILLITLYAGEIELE
UniProt Q695T7: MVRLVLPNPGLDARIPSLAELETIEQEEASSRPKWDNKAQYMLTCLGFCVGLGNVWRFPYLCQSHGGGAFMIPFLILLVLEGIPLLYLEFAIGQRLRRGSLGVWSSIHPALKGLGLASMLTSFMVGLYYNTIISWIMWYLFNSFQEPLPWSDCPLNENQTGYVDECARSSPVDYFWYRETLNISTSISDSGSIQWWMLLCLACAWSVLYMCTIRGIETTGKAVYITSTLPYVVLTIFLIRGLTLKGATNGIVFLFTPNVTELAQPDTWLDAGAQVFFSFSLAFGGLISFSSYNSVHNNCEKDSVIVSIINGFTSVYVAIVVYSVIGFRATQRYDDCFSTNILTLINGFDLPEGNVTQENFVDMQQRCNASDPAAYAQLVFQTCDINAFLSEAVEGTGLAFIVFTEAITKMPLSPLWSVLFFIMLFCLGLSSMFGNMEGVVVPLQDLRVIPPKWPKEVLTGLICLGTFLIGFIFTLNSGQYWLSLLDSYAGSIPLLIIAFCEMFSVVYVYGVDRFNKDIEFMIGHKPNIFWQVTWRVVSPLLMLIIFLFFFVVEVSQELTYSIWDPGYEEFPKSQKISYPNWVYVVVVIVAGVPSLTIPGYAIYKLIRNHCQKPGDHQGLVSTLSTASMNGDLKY
UniProt O15431: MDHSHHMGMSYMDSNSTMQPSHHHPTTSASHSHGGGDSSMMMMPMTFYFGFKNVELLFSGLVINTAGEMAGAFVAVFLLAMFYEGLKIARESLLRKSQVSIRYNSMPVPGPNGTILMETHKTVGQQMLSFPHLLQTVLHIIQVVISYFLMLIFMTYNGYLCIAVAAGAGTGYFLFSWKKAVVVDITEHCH
UniProt Q0GE19: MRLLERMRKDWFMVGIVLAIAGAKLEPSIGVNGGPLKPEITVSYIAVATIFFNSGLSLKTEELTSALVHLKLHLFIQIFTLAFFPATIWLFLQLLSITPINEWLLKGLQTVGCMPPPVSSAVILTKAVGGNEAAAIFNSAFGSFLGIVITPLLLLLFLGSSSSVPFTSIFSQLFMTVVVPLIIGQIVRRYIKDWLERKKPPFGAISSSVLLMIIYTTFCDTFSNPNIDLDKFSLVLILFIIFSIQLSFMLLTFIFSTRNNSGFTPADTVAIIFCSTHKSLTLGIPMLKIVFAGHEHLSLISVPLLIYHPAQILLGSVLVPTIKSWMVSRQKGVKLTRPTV
UniProt Q8N8R3: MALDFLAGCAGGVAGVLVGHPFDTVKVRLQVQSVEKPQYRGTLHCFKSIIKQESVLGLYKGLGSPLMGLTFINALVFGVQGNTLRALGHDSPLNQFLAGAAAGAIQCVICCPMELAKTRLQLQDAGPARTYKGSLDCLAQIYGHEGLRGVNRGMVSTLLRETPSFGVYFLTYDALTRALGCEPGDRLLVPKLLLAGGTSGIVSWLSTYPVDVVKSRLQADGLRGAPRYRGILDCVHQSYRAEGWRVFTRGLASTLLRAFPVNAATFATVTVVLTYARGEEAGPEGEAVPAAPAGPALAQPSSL
UniProt Q96A46: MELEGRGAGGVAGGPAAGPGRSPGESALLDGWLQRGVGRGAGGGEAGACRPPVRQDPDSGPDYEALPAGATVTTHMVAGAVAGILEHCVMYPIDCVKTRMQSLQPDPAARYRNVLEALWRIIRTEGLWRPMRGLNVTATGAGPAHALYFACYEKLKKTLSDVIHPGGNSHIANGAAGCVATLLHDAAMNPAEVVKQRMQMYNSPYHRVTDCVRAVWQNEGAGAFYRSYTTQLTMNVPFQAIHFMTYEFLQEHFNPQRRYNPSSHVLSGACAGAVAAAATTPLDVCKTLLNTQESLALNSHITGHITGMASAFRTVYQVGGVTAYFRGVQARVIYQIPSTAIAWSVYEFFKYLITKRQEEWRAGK
UniProt Q96QE2: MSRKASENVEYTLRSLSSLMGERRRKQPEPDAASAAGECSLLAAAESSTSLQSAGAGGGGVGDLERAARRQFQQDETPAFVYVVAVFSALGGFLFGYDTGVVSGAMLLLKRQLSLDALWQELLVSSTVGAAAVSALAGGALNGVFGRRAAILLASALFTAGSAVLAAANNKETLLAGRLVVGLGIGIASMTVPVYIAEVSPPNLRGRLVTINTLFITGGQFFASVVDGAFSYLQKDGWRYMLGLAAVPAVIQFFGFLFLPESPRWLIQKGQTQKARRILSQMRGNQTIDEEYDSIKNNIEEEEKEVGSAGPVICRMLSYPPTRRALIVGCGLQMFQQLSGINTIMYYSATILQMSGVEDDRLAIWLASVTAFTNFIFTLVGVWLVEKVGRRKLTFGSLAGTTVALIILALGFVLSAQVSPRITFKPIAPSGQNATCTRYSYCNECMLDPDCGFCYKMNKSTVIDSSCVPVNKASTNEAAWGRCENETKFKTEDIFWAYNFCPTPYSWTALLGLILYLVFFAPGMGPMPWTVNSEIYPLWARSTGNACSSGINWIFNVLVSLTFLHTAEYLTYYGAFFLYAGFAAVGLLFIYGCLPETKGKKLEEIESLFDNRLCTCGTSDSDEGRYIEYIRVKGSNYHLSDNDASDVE
UniProt P14672: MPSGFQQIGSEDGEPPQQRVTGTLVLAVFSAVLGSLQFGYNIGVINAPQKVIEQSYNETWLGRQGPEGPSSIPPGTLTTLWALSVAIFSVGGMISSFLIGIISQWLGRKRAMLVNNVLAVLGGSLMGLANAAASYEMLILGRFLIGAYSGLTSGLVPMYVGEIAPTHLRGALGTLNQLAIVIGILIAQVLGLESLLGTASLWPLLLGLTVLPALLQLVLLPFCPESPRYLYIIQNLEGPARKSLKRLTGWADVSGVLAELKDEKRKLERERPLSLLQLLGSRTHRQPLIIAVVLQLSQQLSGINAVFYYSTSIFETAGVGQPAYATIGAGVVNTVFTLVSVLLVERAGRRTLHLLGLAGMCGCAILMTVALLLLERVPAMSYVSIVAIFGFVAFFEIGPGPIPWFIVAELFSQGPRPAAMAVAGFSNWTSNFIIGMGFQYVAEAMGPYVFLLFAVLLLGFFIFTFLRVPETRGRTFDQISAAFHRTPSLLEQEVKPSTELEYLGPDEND
UniProt P43003, whole entry, looked up: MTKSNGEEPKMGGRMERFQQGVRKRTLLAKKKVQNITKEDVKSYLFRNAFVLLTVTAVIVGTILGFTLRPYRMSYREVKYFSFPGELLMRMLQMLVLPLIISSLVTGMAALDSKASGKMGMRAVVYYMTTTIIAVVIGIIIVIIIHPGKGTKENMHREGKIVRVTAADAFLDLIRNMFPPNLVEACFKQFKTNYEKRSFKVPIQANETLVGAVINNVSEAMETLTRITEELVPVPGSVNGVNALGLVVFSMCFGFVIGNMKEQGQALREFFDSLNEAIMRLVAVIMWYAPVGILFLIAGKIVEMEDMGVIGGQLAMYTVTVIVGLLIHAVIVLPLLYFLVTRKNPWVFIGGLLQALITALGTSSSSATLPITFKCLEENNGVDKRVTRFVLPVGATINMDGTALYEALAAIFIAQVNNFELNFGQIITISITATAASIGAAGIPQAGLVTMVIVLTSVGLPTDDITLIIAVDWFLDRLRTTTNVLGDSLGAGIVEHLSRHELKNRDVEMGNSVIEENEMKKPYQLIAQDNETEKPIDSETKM
UniProt P50443: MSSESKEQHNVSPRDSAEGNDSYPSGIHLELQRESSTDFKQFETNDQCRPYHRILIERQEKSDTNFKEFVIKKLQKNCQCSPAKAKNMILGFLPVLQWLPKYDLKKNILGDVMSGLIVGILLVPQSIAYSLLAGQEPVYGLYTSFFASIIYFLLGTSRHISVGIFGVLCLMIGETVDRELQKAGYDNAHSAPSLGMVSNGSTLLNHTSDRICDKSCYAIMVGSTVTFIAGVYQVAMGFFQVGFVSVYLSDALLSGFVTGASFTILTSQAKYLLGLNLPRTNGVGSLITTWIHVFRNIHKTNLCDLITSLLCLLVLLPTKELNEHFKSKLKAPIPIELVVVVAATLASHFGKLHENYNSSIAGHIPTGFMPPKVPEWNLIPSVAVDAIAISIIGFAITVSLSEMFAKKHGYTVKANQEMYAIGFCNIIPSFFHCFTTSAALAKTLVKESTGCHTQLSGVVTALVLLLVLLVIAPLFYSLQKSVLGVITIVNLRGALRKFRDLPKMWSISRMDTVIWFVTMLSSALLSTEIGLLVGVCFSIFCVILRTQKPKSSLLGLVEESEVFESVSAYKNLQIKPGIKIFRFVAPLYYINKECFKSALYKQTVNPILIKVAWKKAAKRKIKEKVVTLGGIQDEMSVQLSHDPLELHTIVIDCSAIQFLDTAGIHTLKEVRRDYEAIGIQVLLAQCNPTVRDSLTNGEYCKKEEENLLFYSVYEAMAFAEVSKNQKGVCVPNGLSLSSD
UniProt Q9NY26: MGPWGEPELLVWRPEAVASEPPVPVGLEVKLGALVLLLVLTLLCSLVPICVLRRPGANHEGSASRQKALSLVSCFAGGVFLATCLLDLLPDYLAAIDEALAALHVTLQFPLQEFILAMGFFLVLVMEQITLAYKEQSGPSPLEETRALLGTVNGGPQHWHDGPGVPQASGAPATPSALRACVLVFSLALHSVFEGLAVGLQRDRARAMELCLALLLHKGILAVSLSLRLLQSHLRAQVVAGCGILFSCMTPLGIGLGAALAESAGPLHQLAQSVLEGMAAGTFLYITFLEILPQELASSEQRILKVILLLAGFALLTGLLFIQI

Compound: CS(=O)(=O)CCNCc1ccc(-c2ccc3ncnc(Nc4ccc(OCc5cccc(F)c5)c(Cl)c4)c3c2)o1 [lapatinib]
Assay: log2 fold change, soluble protein after heating vs DMSO (PISA); higher = thermal stabilisation; K562 cells, 10 uM, 30 min; active = over 0.2 and 3.5 SD of the protein, either way, in both replicates (recomputed)
Procedure, shortened: (§1)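 K562 cells at 2×10^6 cells/mL were exposed to 10 μM compound for 30 min, then aliquots were heated for 3 min across 48°C-58°C, pooled, and extracted in PBS containing 0.5% NP-40 at 4°C. The supernatant after 21,000xg for 90 min was taken as soluble protein and measured by TMTpro 16plex LC-MS/MS with channel sums equalised. Thermal stability is reported relative to control samples, with values from duplicates. Fold changes are given on a log2 scale.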

Row | Target | log2 fold change
1 | SLC3A2 (UniProt F5H867) | inactive: -0.151
2 | SLC35F6 (UniProt Q8N357) | inactive: -0.076
3 | SLC50A1 (UniProt Q9BRV3) | inactive: 0.367
4 | SLC35D1 (UniProt Q9NTN3) | inactive: 0.112
5 | SLC35E3 (UniProt Q7Z769) | inactive: -0.132
6 | SLC22A23 (UniProt A1A5C7) | inactive: -0.167
7 | SLC22A4 (UniProt Q9H015) | inactive: -0.059
8 | SLC25A35 (UniProt Q3KQZ1) | inactive: -0.212
9 | SLC39A8 (UniProt Q9C0K1) | inactive: -0.047
10 | SLC6A19 (UniProt Q695T7) | inactive: 0.05
11 | SLC3A2 (UniProt F5GZS6) | inactive: 0.033
12 | SLC31A1 (UniProt O15431) | inactive: 0.038
13 | SLC39A3 (UniProt Q9BRY0) | inactive: -0.2
14 | SLC22A5 isoform 3 (UniProt O76082) | inactive: 0.044
15 | SLC35C1 (UniProt Q96A29) | inactive: -0.111
16 | SLC10A7 isoform 1 (UniProt Q0GE19) | inactive: 0.059
17 | SLC25A29 (UniProt Q8N8R3) | inactive: 0.191
18 | SLC25A28 (UniProt Q96A46) | inactive: -0.076
19 | SLC43A3 (UniProt Q8NBI5) | inactive: 0.03
20 | SLC2A13 (UniProt Q96QE2) | inactive: -0.052
21 | SLC35E1 (UniProt Q96K37) | inactive: 0.059
22 | SLC2A4 (UniProt P14672) | inactive: -0.064
23 | SLC1A3 (UniProt P43003) | inactive: -0.03

Compound: CS(=O)(=O)N1CCN(Cc2cc3nc(-c4cccc5[nH]ncc45)nc(N4CCOCC4)c3s2)CC1 [pictilisib]
Assay: as above
Procedure, shortened: as §1

Row | Target | log2 fold change
24 | SLC3A2 (UniProt F5H867) | inactive: 0.17
25 | SLC22A23 (UniProt A1A5C7) | inactive: -0.036
26 | SLC46A1 (UniProt Q96NT5) | inactive: 0.061
27 | SLC25A35 (UniProt Q3KQZ1) | inactive: 0.15
28 | SLC52A2 (UniProt Q9HAB3) | inactive: 0.142
29 | SLC39A8 (UniProt Q9C0K1) | inactive: -0.142
30 | SLC31A1 (UniProt O15431) | inactive: -0.215
31 | SLC39A3 (UniProt Q9BRY0) | inactive: 0.069
32 | SLC26A2 (UniProt P50443) | inactive: 0.051
33 | SLC22A5 isoform 3 (UniProt O76082) | inactive: 0.002
34 | SLC35C1 (UniProt Q96A29) | inactive: -0.001
35 | SLC2A13 (UniProt Q96QE2) | inactive: 0.152
36 | SLC39A1 (UniProt Q9NY26) | inactive: -0.053
37 | SLC35E1 (UniProt Q96K37) | inactive: -0.096
38 | SLC2A4 (UniProt P14672) | inactive: 0.096
39 | SLC1A3 (UniProt P43003) | inactive: 0.02
